Reference: patent publication US20260167728A1 (published 2026)
No constants are given. Whether binding was seen depends on the method and setting. A result given as binding can be weak or reduced; the word gives no strength.

Legend:
human CD3 (human) = assay: SPR Biacore 37 C
[1] = target: cynomolgus monkey CD3 (cynomolgus monkey); assay: SPR Biacore 37 C

| Binder | binding (human CD3 (human)) | binding [1] |
| --- | --- | --- |
| AMX-525 (bispecific antibody, Fully masked paTCE; also called AC4230; EGFR.37/CD3.318 paTCE) ASSATPESGPGTSTEPSEGSAPGTSESATPESGPGSGPGTSESATPGTSESATPESGPGSEPATSGSETPGTSESATPESGPGTSTEPSEGSAPGSPAGSPTSTEEGTSESATPESGPGSEPATSGSETPGTSESATPESGPGSPAGSPTSTEEGSPAGSPTSTEEGTSTEPSEGSAPGTSESATPESGPGTSESATPESGPGTSESATPESGPGSEPATSGSETPGSEPATSGSETPGSPAGSPTSTEEGTSTEPSEGSAPGTSTEPSEGSAPGSEPATSGSETPGTSESATPEAGRSASHTPAGLTGPGTSESATPESDIQMTQSPSSLSASVGDRVTITCQASQDISNYLNWYQQKPGKAPKLLIYDASNLETGVPSRFSGSGSGTDFTFTISSLQPEDIATYYCQHFDHLPLAFGQGTKVEIKSESATPESGPGTSPGATPESGPGTSESATPQVQLQESGPGLVKPSETLSLTCTVSGGSVSSGDYYWTWIRQPPGKGLEWIGHIYYSGNTNYNPSLKSRVTISVDTSKNQFSLKLSSVTAADTAVYYCARDRVTGAFDIWGQGTLVTVSSGGGGSELVVTQEPSLTVSPGGTVTLTCRSSNGAVTSSNYANWVQQKPGQAPRGLIGGTNKRAPGTPARFSGSLLEGKAALTLSGVQPEDEAVYYCALWYPNLWVFGGGTKLTVLSESATPESGPGTSPGATPESGPGTSESATPEVQLVESGGGIVQPGGSLRLSCAASGFTFSTYAMNWVRQAPGKGLEWVGRIRTKRNDYATYYADSVKGRFTISRDDSKNTLYLQMNSLKTEDTAVYYCVRHENFGNSYVSWFAHWGQGTLVTVSSGTATPESGPGEAGRSASHTPAGLTGPATPESGPGTSESATPESGPGSPAGSPTSTEEGTSESATPESGPGSEPATSGSETPGTSESATPESGPGTSTEPSEGSAPGTSTEPSEGSAPGTSTEPSEGSAPGTSTEPSEGSAPGTSTEPSEGSAPGTSTEPSEGSAPGSPAGSPTSTEEGTSTEPSEGSAPGTSESATPESGPGSEPATSGSETPGTSESATPESGPGSEPATSGSETPGTSESATPESGPGTSTEPSEGSAPGTSESATPESGPGSPAGSPTSTEEGSPAGSPTSTEEGSPAGSPTSTEEGTSESATPESGPGTSTEPSEGSAPGTSESATPESGPGSEPATSGSETPGTSESATPESGPGSEPATSGSETPGTSESATPESGPGTSTEPSEGSAPGSPAGSPTSTEEGTSESATPESGPGSEPATSGSETPGTSESATPESGPGSPAGSPTSTEEGSPAGSPTSTEEGTSTEPSEGSAPGTSESATPESGPGTSESATPESGPGTSPSATPESGPGSEPATSGSETPGSEPATSGSETPGSPAGSPTSTEEGTSTEPSEGSAPGTSTEPSEGSAPGSEPATSGSETPGTSESAGEPEA | binds | binds |
| AMX-525 (uTCE) (bispecific antibody, Fully unmasked metabolite; also called unmasked AMX-525; not shown: remnant of cleaved RSR-3213) GTSESATPESDIQMTQSPSSLSASVGDRVTITCQASQDISNYLNWYQQKPGKAPKLLIYDASNLETGVPSRFSGSGSGTDFTFTISSLQPEDIATYYCQHFDHLPLAFGQGTKVEIKSESATPESGPGTSPGATPESGPGTSESATPQVQLQESGPGLVKPSETLSLTCTVSGGSVSSGDYYWTWIRQPPGKGLEWIGHIYYSGNTNYNPSLKSRVTISVDTSKNQFSLKLSSVTAADTAVYYCARDRVTGAFDIWGQGTLVTVSSGGGGSELVVTQEPSLTVSPGGTVTLTCRSSNGAVTSSNYANWVQQKPGQAPRGLIGGTNKRAPGTPARFSGSLLEGKAALTLSGVQPEDEAVYYCALWYPNLWVFGGGTKLTVLSESATPESGPGTSPGATPESGPGTSESATPEVQLVESGGGIVQPGGSLRLSCAASGFTFSTYAMNWVRQAPGKGLEWVGRIRTKRNDYATYYADSVKGRFTISRDDSKNTLYLQMNSLKTEDTAVYYCVRHENFGNSYVSWFAHWGQGTLVTVSSGTATPESGPG | binds | binds |
